Data taken from US6692743B1, “Apoptosis of naive human NK cells by crosslinking of their FcγRIIIa molecules with a rat IgG2b (LO-CD2a/BTI-322) or its IgG1 humanized monoclonal antibody” (Universite Catholique de Louvain, priority 1998, dated 2004).

System: freshly isolated NK cells
Experiment: Effect of different inhibitors on LO-CD2a mediated NK apoptosis (PI, flow cytometry)
Type: cell-based, human
Details: 3 h pre-incubation with inhibitor, then 3 hours with LO-CD2a; 5 donors
Protocol: Effect of different inhibitors on LO-CD2a mediated NK apoptosis. 100 ul of freshly isolated NK cells (10^6/ml) were pre-incubated for 3 h at 37° C. in a 96 well plate with EGTA (20 mM), staurosporin (250 nM), quinacrine ([…]), cyclosporin A ([…]), FK506 ([…]), wortmannin (500 ng/ml), concanamycin A ([…]), cytochalasine D (1 mg/ml), actinomycin) (500 ng/ml final concentration), NOK-1 (25 mg/ml) or medium alone. After incubation for 3 hours with LO-CD2a ([…] final concentration) propidium iodide was added and cell mortality was analysed by flow cytometry.

SMILES: CN[C@@H]1C[C@H]2O[C@@](C)([C@@H]1OC)n1c3ccccc3c3c4c(c5c6ccccc6n2c5c31)C(=O)NC4 [staurosporine, Staurosporine]
- inhibition of LO-CD2a mediated NK apoptosis (in words): completely inhibited
